Positions count from the first letter of the chain named. Results are given in words; binding and its absence hold for the method and conditions named. Binding seen in cells or lysates may run through a third protein. These calls come from enrichment with a bait or labelling near it, and not all partners need be listed. Tags and fused reporters may be left off the sequences shown.
Assays:
Experiment in all cases: affinity purification with mass spectrometry; GFP pulldown with GFP Tag Immunomagnetic Beads from lysates of HEK-293 Flp-In T-REx cells expressing EGFP, EGFP-MAB21L1 or mutant EGFP-MAB21L1 after 12 hrs of 1 μg/ml tetracycline; three biological replicates; MaxQuant
[1] = target: T1, GFP-tagged MAB21L1 Arg51Gln (human) (UniProt Q13394)
T1 sequence: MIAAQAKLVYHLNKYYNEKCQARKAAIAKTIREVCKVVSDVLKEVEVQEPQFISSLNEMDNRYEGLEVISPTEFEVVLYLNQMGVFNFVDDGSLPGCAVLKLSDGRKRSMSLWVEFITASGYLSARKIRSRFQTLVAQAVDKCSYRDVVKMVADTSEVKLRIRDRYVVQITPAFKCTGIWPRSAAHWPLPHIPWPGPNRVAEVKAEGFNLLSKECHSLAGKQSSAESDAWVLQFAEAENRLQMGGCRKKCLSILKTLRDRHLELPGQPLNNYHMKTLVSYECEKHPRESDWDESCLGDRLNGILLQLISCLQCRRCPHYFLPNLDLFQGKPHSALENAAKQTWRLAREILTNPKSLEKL

[2] = target: T2, GFP-tagged MAB21L1 Arg51Leu (human) (UniProt Q13394)
T2 sequence: T1 sequence with Q51L

[3] = target: T3, GFP-tagged wild-type MAB21L1 (human) (UniProt Q13394)
T3 sequence: T1 sequence with Q51R

Measured: binding

B1: PFAS (protein, UniProt O15067 1-1338)
chain: MSPVLHFYVRPSGHEGAAPGHTRRKLQGKLPELQGVETELCYNVNWTAEALPSAEETKKLMWLFGCPLLLDDVARESWLLPGSNDLLLEVGPRLNFSTPTSTNIVSVCRATGLGPVDRVETTRRYRLSFAHPPSAEVEAIALATLHDRMTEQHFPHPIQSFSPESMPEPLNGPINILGEGRLALEKANQELGLALDSWDLDFYTKRFQELQRNPSTVEAFDLAQSNSEHSRHWFFKGQLHVDGQKLVHSLFESIMSTQESSNPNNVLKFCDNSSAIQGKEVRFLRPEDPTRPSRFQQQQGLRHVVFTAETHNFPTGVCPFSGATTGTGGRIRDVQCTGRGAHVVAGTAGYCFGNLHIPGYNLPWEDPSFQYPGNFARPLEVAIEASNGASDYGNKFGEPVLAGFARSLGLQLPDGQRREWIKPIMFSGGIGSMEADHISKEAPEPGMEVVKVGGPVYRIGVGGGAASSVQVQGDNTSDLDFGAVQRGDPEMEQKMNRVIRACVEAPKGNPICSLHDQGAGGNGNVLKELSDPAGAIIYTSRFQLGDPTLNALEIWGAEYQESNALLLRSPNRDFLTHVSARERCPACFVGTITGDRRIVLVDDRECPVRRNGQGDAPPTPLPTPVDLELEWVLGKMPRKEFFLQRKPPMLQPLALPPGLSVHQALERVLRLPAVASKRYLTNKVDRSVGGLVAQQQCVGPLQTPLADVAVVALSHEELIGAATALGEQPVKSLLDPKVAARLAVAEALTNLVFALVTDLRDVKCSGNWMWAAKLPGEGAALADACEAMVAVMAALGVAVDGGKDSLSMAARVGTETVRAPGSLVISAYAVCPDITATVTPDLKHPEGRGHLLYVALSPGQHRLGGTALAQCFSQLGEHPPDLDLPENLVRAFSITQGLLKDRLLCSGHDVSDGGLVTCLLEMAFAGNCGLQVDVPVPRVDVLSVLFAEEPGLVLEVQEPDLAQVLKRYRDAGLHCLELGHTGEAGPHAMVRVSVNGAVVLEEPVGELRALWEETSFQLDRLQAEPRCVAEEERGLRERMGPSYCLPPTFPKASVPREPGGPSPRVAILREEGSNGDREMADAFHLAGFEVWDVTMQDLCSGAIGLDTFRGVAFVGGFSYADVLGSAKGWAAAVTFHPRAGAELRRFRKRPDTFSLGVCNGCQLLALLGWVGGDPNEDAAEMGPDSQPARPGLLLRHNLSGRYESRWASVRVGPGPALMLRGMEGAVLPVWSAHGEGYVAFSSPELQAQIEARGLAPLHWADDDGNPTEQYPLNPNGSPGGVAGICSCDGRHLAVMPHPERAVRPWQWAWRPPPFDTLTTSPWLQLFINARNWTLEGSC
binds: all assays above

B2: SMG5 (protein, UniProt Q9UPR3 1-1016)
chain: MSQGPPTGESSEPEAKVLHTKRLYRAVVEAVHRLDLILCNKTAYQEVFKPENISLRNKLRELCVKLMFLHPVDYGRKAEELLWRKVYYEVIQLIKTNKKHIHSRSTLECAYRTHLVAGIGFYQHLLLYIQSHYQLELQCCIDWTHVTDPLIGCKKPVSASGKEMDWAQMACHRCLVYLGDLSRYQNELAGVDTELLAERFYYQALSVAPQIGMPFNQLGTLAGSKYYNVEAMYCYLRCIQSEVSFEGAYGNLKRLYDKAAKMYHQLKKCETRKLSPGKKRCKDIKRLLVNFMYLQSLLQPKSSSVDSELTSLCQSVLEDFNLCLFYLPSSPNLSLASEDEEEYESGYAFLPDLLIFQMVIICLMCVHSLERAGSKQYSAAIAFTLALFSHLVNHVNIRLQAELEEGENPVPAFQSDGTDEPESKEPVEKEEEPDPEPPPVTPQVGEGRKSRKFSRLSCLRRRRHPPKVGDDSDLSEGFESDSSHDSARASEGSDSGSDKSLEGGGTAFDAETDSEMNSQESRSDLEDMEEEEGTRSPTLEPPRGRSEAPDSLNGPLGPSEASIASNLQAMSTQMFQTKRCFRLAPTFSNLLLQPTTNPHTSASHRPCVNGDVDKPSEPASEEGSESEGSESSGRSCRNERSIQEKLQVLMAEGLLPAVKVFLDWLRTNPDLIIVCAQSSQSLWNRLSVLLNLLPAAGELQESGLALCPEVQDLLEGCELPDLPSSLLLPEDMALRNLPPLRAAHRRFNFDTDRPLLSTLEESVVRICCIRSFGHFIARLQGSILQFNPEVGIFVSIAQSEQESLLQQAQAQFRMAQEEARRNRLMRDMAQLRLQLEVSQLEGSLQQPKAQSAMSPYLVPDTQALCHHLPVIRQLATSGRFIVIIPRTVIDGLDLLKKEHPGARDGIRYLEAEFKKGNRYIRCQKEVGKSFERHKLKRQDADAWTLYKILDSCKQLTLAQGAGEEDPSGMVTIITGLPLDNPSVLSGPMQAALQAAAHASVDIKNVLDFYKQWKEIG
binds: all assays above

— article PMC9681113
